From the supplement of paper PMC10849652
The other results are listed elsewhere or left out.

Sequences of proteins named here, by UniProt entry; tags and fusion partners are left off. A change or cut given only in a name is not applied to a line headed by its entry.
UniProt O60293: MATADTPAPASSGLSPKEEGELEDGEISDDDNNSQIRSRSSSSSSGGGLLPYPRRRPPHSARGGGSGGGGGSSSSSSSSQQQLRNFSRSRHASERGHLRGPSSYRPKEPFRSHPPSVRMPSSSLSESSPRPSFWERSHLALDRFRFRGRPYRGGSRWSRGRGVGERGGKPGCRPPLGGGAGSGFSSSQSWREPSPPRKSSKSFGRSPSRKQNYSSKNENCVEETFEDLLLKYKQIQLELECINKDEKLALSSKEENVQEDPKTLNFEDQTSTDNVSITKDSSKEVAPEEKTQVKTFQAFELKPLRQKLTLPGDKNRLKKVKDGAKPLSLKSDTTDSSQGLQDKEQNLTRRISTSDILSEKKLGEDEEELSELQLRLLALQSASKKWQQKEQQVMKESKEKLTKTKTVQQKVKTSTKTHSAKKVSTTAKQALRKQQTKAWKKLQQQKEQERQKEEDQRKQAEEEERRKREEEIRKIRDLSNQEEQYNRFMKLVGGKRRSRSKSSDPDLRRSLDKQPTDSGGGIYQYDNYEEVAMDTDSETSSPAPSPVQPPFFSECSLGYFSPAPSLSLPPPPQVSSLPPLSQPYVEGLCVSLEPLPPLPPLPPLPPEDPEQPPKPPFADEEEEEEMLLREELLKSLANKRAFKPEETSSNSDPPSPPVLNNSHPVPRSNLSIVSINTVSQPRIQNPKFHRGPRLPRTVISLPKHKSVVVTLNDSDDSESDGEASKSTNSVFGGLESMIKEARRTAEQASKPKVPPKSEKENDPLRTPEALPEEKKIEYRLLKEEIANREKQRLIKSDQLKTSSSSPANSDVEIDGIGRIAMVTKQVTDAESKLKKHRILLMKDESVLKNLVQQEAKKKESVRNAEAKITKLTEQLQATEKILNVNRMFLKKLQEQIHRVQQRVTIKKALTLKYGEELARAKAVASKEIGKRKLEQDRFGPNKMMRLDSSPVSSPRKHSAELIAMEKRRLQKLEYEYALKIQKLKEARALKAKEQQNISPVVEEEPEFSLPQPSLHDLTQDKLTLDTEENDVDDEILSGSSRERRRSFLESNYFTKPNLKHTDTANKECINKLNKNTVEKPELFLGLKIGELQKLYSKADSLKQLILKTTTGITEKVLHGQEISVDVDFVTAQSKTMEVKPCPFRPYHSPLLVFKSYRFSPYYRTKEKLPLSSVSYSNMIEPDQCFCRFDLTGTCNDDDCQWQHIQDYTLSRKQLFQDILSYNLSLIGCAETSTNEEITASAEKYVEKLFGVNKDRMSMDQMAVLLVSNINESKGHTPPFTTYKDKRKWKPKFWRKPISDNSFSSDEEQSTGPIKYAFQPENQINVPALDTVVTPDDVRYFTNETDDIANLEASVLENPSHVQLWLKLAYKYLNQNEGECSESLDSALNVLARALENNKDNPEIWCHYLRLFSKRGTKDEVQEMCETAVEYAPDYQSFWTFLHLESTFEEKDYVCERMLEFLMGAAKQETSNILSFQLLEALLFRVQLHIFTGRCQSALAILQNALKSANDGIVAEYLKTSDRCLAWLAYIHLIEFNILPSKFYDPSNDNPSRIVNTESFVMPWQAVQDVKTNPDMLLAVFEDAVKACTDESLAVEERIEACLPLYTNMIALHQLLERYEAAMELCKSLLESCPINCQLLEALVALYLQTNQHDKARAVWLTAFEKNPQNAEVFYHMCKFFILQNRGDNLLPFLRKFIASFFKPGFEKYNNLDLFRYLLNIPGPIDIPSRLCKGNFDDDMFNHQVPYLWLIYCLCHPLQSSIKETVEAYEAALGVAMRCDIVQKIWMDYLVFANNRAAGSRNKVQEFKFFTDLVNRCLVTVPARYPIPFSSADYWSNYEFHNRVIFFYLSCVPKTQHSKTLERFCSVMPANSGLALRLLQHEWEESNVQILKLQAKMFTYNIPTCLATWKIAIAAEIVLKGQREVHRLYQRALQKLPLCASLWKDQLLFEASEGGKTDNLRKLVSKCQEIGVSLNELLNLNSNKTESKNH
UniProt Q96KR1: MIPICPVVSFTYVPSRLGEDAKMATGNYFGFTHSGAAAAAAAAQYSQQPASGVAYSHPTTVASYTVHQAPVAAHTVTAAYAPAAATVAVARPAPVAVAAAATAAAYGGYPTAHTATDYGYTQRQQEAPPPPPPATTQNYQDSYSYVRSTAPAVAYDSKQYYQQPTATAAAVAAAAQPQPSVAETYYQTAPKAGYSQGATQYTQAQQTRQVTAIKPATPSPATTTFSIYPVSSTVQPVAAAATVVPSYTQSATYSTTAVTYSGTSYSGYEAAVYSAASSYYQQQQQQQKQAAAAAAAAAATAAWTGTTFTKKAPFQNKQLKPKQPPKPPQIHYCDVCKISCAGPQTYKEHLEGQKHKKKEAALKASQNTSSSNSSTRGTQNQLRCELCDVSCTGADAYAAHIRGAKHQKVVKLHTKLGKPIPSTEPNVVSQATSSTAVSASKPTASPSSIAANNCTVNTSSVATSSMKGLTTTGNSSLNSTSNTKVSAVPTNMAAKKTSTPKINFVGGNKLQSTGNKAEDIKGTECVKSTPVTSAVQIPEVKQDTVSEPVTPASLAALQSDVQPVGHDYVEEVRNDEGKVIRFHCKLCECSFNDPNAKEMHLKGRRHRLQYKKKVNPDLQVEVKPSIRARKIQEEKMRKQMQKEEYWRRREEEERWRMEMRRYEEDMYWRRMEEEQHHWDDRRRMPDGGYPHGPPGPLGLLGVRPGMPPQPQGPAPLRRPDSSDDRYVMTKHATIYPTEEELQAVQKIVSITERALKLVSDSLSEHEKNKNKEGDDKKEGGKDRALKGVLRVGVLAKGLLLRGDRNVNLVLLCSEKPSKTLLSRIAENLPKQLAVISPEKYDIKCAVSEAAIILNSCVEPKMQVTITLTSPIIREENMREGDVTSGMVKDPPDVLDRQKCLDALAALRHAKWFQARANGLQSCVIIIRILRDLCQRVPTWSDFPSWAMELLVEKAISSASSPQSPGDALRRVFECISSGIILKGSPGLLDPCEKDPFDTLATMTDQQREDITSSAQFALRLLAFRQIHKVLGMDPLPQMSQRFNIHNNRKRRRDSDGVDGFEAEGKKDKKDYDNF
UniProt Q9NUE0: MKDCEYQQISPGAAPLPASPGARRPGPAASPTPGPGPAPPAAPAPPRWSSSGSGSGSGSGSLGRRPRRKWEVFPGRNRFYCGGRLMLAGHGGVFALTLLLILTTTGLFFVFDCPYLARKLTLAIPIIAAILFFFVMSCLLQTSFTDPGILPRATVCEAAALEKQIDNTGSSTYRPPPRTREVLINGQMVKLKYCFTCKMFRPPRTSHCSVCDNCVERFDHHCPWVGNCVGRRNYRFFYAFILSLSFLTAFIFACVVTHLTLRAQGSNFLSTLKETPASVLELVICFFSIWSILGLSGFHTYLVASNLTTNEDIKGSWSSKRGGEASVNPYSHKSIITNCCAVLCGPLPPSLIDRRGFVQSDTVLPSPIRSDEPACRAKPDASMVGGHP
UniProt O75152: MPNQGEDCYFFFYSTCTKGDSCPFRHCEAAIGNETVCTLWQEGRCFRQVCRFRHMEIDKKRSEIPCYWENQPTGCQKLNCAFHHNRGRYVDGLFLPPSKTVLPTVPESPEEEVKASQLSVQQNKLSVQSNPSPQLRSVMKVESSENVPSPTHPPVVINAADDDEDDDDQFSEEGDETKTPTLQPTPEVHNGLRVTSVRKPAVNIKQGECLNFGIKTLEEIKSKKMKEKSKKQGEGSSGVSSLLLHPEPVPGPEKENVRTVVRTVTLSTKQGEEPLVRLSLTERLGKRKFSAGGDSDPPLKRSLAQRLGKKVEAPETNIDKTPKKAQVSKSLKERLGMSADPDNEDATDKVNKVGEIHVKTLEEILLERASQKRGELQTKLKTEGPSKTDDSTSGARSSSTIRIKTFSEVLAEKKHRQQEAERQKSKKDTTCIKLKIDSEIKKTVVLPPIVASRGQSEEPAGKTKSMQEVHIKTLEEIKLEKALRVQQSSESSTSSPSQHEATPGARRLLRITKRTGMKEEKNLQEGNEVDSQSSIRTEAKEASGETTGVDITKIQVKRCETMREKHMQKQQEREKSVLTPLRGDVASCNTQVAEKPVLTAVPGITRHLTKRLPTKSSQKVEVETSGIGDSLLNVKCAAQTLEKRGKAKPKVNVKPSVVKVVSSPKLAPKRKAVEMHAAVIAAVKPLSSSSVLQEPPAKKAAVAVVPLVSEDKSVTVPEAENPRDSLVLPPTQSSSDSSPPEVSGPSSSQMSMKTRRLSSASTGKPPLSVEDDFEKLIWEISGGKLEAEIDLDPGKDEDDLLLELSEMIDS
UniProt Q8IY57: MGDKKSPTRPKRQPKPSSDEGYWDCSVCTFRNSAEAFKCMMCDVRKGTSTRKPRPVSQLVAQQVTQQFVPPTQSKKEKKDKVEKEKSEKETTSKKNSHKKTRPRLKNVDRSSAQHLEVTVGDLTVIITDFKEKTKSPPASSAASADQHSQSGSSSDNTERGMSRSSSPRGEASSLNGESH
UniProt Q16600: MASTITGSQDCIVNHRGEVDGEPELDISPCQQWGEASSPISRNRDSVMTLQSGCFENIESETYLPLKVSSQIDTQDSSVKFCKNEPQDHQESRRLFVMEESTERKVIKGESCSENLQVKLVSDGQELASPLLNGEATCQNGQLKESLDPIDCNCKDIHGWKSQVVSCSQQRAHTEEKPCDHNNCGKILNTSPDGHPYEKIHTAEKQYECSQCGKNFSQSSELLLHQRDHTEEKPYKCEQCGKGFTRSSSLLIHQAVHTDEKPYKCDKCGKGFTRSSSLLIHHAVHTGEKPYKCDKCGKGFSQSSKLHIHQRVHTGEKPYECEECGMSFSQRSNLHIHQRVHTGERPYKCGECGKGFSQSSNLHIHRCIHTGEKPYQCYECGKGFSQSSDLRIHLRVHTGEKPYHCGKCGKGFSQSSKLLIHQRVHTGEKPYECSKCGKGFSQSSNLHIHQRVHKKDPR
UniProt Q5T200: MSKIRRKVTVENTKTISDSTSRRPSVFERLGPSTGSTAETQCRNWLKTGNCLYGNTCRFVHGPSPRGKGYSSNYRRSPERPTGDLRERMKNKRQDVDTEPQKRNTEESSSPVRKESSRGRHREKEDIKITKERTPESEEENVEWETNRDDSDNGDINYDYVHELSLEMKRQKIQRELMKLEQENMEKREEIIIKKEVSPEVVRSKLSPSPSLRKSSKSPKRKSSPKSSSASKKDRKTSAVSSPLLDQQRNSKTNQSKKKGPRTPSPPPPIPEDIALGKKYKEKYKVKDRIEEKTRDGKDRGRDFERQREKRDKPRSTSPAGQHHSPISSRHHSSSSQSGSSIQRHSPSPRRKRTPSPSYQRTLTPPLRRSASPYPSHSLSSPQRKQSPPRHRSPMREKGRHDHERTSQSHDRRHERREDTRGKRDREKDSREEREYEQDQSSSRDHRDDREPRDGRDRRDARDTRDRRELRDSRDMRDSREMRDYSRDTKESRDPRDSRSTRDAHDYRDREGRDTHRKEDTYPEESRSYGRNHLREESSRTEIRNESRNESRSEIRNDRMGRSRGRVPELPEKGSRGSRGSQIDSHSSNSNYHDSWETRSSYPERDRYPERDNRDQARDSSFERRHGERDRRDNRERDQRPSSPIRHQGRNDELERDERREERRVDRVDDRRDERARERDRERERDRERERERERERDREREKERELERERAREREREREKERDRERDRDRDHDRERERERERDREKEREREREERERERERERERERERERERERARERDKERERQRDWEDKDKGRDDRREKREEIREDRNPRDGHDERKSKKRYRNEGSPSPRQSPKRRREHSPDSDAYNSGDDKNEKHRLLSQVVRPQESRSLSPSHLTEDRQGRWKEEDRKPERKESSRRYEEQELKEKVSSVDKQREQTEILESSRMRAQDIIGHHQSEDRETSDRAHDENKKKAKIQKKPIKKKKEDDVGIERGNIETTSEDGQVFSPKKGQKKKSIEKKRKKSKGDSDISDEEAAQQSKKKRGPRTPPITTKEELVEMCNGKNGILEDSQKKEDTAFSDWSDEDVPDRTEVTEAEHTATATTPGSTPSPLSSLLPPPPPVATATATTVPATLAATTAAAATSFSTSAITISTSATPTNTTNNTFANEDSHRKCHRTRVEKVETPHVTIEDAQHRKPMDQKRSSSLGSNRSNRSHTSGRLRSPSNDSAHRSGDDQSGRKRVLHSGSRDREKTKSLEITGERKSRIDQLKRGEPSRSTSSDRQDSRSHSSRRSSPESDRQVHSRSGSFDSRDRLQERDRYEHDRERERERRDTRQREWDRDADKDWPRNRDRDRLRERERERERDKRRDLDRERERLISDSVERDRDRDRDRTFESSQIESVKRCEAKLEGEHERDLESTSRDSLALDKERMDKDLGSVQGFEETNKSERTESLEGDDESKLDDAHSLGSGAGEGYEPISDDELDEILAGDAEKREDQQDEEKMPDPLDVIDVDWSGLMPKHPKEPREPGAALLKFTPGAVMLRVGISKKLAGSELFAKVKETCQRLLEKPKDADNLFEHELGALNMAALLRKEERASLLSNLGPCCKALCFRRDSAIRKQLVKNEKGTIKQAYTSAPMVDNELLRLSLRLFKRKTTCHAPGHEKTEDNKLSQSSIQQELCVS

Tests used:
Experiment in all cases: log2 fold change, soluble protein after heating vs DMSO (PISA); higher = thermal stabilisation; K562 cells, 10 uM, 30 min; active = over 0.2 and 3.5 SD of the protein, either way, in both replicates (recomputed)
bafetinib = compound: Cc1ccc(NC(=O)c2ccc(CN3CC[C@H](N(C)C)C3)c(C(F)(F)F)c2)cc1Nc1nccc(-c2cncnc2)n1 [bafetinib]
Method in brief: (§1)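 Values are thermal stability changes relative to control samples and are taken from duplicates. They are stated as log2 fold changes. Before quantification by TMTpro 16plex LC-MS/MS with equalised channel sums, K562 cells at 2×10^6 cells/mL were treated with 10 μM compound for 30 min, heated in aliquots for 3 min across 48°C-58°C, pooled, extracted in PBS with 0.5% NP-40 at 4°C, and centrifuged at 21,000xg for 90 min to give the soluble supernatant.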

nilotinib = compound: Cc1cn(-c2cc(NC(=O)c3ccc(C)c(Nc4nccc(-c5cccnc5)n4)c3)cc(C(F)(F)F)c2)cn1 [nilotinib]
Method in brief: as §1

[1] = compound: Cc1nc(Nc2n[nH]c3c2CN(C(=O)N[C@H](CN(C)C)c2ccccc2)C3(C)C)c2sccc2n1
Method in brief: as §1

[2] = compound: Cc1ncc(-c2ccnc(Nc3ccc(S(C)(=O)=O)cc3)n2)n1C(C)C
Method in brief: as §1

[3] = compound: Cn1cc(-c2ccc3nnc(C(F)(F)c4ccc5ncccc5c4)n3n2)cn1
Method in brief: as §1

mubritinib = compound: FC(F)(F)c1ccc(/C=C/c2nc(COc3ccc(CCCCn4ccnn4)cc3)co2)cc1 [mubritinib]
Method in brief: as §1

[4] = compound: NC(=O)Nc1cc(-c2cccc(F)c2)sc1C(=O)N[C@H]1CCCNC1
Method in brief: as §1

[5] = compound: NC(=O)c1cnc(N[C@@H]2CCCC[C@@H]2N)nc1Nc1cccc(-n2nccn2)c1
Method in brief: as §1

[6] = compound: NC1(c2ccc(-c3nc4ccn5c(=O)[nH]nc5c4cc3-c3ccccc3)cc2)CCC1
Method in brief: as §1

entinostat = compound: Nc1ccccc1NC(=O)c1ccc(CNC(=O)OCc2cccnc2)cc1 [entinostat]
Method in brief: as §1

citarinostat = compound: O=C(CCCCCCNC(=O)c1cnc(N(c2ccccc2)c2ccccc2Cl)nc1)NO [citarinostat]
Method in brief: as §1

silmitasertib = compound: O=C(O)c1ccc2c(c1)nc(Nc1cccc(Cl)c1)c1ccncc12 [silmitasertib]
Method in brief: as §1

[7] = compound: c1cc(OCCN2CCCCC2)cc(-c2n[nH]c3ccc(-c4nnc[nH]4)cc23)c1
Method in brief: as §1

[8] = compound: Cn1cc(-c2ccc3c(c2)CCN3C(=O)Cc2cccc(C(F)(F)F)c2)c2c(N)ncnc21
Method in brief: as §1

[9] = compound: Cc1cccc(CC(=O)N2CCc3c2ccc(-c2cn(C)c4ncnc(N)c24)c3F)n1
Method in brief: as §1

[10] = compound: NCC(=O)Nc1ccc(-n2nc(C(F)(F)F)cc2-c2ccc3c(ccc4ccccc43)c2)cc1
Method in brief: as §1

vorinostat = compound: O=C(CCCCCCC(=O)Nc1ccccc1)NO [vorinostat]
Method in brief: as §1

[11] = compound: O=C1NC(=O)C(c2cnc3ccccn23)=C1c1cn2c3c(cc(F)cc13)CN(C(=O)N1CCCCC1)CC2
Method in brief: as §1

dasatinib = compound: Cc1nc(Nc2ncc(C(=O)Nc3c(C)cccc3Cl)s2)cc(N2CCN(CCO)CC2)n1 [dasatinib]
Method in brief: as §1

tipifarnib = compound: Cn1cncc1[C@@](N)(c1ccc(Cl)cc1)c1ccc2c(c1)c(-c1cccc(Cl)c1)cc(=O)n2C [tipifarnib]
Method in brief: as §1

Measured: log2 fold change

ZFC3H1 (UniProt O60293)
inactive: bafetinib -0.142 | nilotinib 0.031 | [1] -0.005 | [2] 0.202 | [3] 0.052 | mubritinib -0.171 | [4] -0.177 | [5] -0.125 | [6] 0.141 | entinostat 0.034 | citarinostat -0.062 | silmitasertib 0.115 | [7] 0.267

ZBTB14 (UniProt O43829)
inactive: bafetinib -0.25 | [8] -0.19 | [3] -0.063 | mubritinib -0.038 | [6] 0.124 | silmitasertib 0.111

ZMYM4 (UniProt Q5VZL5)
inactive: bafetinib -0.044 | [9] -0.03 | nilotinib 0 | [1] 0.071 | [2] -0.039 | [8] 0 | [3] -0.006 | mubritinib 0.274 | [4] 0.29 | [6] -0.146 | [10] 0.007 | entinostat 0 | vorinostat 0.041 | citarinostat 0.068 | silmitasertib -0.014 | [11] 0.088 | [7] 0.014

ZBTB7A (UniProt O95365)
inactive: bafetinib 0.013 | nilotinib 0.085 | [1] 0.006 | dasatinib 0.183 | [2] -0.082 | [8] -0.23 | [3] -0.064 | tipifarnib 0.048 | [4] -0.079 | [5] -0.02 | entinostat -0.117 | citarinostat 0.061 | [11] 0.128 | [7] -0.014

ZFYVE9 (UniProt O95405)
inactive: bafetinib -0.095 | nilotinib 0.003 | [1] -0.037 | dasatinib -0.192 | [2] 0.144 | [8] 0.136 | [3] 0.054 | tipifarnib 0.089 | mubritinib 0.215 | [4] -0.035 | [6] -0.28 | [10] 0.037 | entinostat 0.133 | citarinostat 0.26 | silmitasertib 0.017 | [11] -0.077 | [7] -0.135

ZFR (UniProt Q96KR1)
inactive: bafetinib 0.065 | [9] 0.047 | nilotinib 0.062 | [1] 0.036 | dasatinib 0.226 | [2] 0.024 | [8] -0.205 | [3] -0.076 | mubritinib -0.152 | [4] -0.104 | [6] 0.118 | [10] 0.081 | entinostat -0.041 | vorinostat 0.089 | citarinostat 0.104 | silmitasertib 0.081 | [11] 0.258 | [7] -0.072

ZBED1 (UniProt O96006)
inactive: bafetinib -0.079 | nilotinib 0.082 | [1] -0.256 | dasatinib -0.189 | [2] 0.017 | [8] 0.185 | tipifarnib -0.095 | [4] -0.066 | [5] -0.088 | entinostat 0.069 | [11] -0.255

ZDHHC18 (UniProt Q9NUE0)
inactive: bafetinib 0.159 | [9] -0.317 | nilotinib 0.129 | [1] -0.057 | dasatinib -0.111 | [2] -0.072 | [8] -0.009 | [3] -0.094 | tipifarnib -0.112 | mubritinib -0.013 | [4] -0.023 | [5] 0.027 | [6] -0.098 | entinostat -0.007 | vorinostat -0.143 | citarinostat -0.133 | silmitasertib -0.021 | [11] 0.024 | [7] 0.024

ZBTB21 (UniProt Q9ULJ3)
inactive: bafetinib 0.194 | [9] 0.016 | nilotinib 0.023 | [1] -0.093 | dasatinib -0.005 | [2] 0.061 | [8] 0.122 | [3] -0.009 | tipifarnib -0.02 | mubritinib 0.003 | [4] -0.083 | [5] -0.044 | [6] 0.047 | [10] -0.042 | entinostat -0.074 | vorinostat 0.079 | silmitasertib 0.104 | [11] -0.226

XRN1 (UniProt Q8IZH2)
inactive: bafetinib 0.044 | [9] 0.034 | nilotinib -0.291 | [1] -0.331 | dasatinib 0.017 | [2] 0.083 | [8] -0.058 | [3] -0.119 | mubritinib -0.037 | [6] 0.473 | [10] 0.12 | vorinostat 0.062 | citarinostat 0 | silmitasertib 0.149 | [11] 0.429 | [7] -0.052

ZC3H11A (UniProt O75152)
inactive: bafetinib -0.128 | [9] 0.007 | nilotinib 0.089 | [1] 0.013 | dasatinib -0.242 | [2] -0.194 | [8] -0.166 | tipifarnib 0.141 | mubritinib -0.048 | [6] -0.09 | [10] -0.063 | vorinostat 0.2 | citarinostat 0.011 | silmitasertib 0.078 | [7] -0.051

XIRP2 isoform 8 (UniProt A4UGR9)
inactive: bafetinib -0.111 | [9] -0.063 | nilotinib -0.025 | [1] 0 | dasatinib 0.013 | [2] -0.03 | [8] -0.065 | tipifarnib 0.098 | mubritinib 0.02 | [4] -0.155 | [5] -0.021 | [6] -0.076 | entinostat -0.003 | vorinostat -0.119 | citarinostat 0.034 | silmitasertib 0.053 | [7] -0.106

YAF2 isoform 5 (UniProt Q8IY57)
inactive: bafetinib 0.027 | [9] -0.252 | nilotinib 0.06 | [1] -0.044 | dasatinib 0.031 | [2] 0.033 | [8] -0.023 | [3] -0.092 | tipifarnib -0.002 | mubritinib -0.099 | [4] -0.029 | [5] -0.044 | [6] 0.034 | [10] 0 | entinostat -0.054 | vorinostat 0.184 | citarinostat 0.103 | silmitasertib -0.048 | [11] 0.071 | [7] -0.27

ZNF148 (UniProt Q9UQR1)
inactive: bafetinib -0.082 | [9] 0.02 | nilotinib 0.178 | [1] -0.173 | dasatinib 0.106 | [2] 0.036 | [8] -0.094 | [3] 0.441 | tipifarnib 0.026 | mubritinib 0.13 | [4] 0.285 | [5] 0.16 | [6] 0.058 | entinostat -0.093 | vorinostat -0.225 | silmitasertib 0.06 | [11] 0.136

ZBTB43 (UniProt O43298)
inactive: bafetinib -0.006 | [9] -0.025 | nilotinib -0.157 | [1] 0.043 | dasatinib -0.034 | [2] 0.16 | [8] 0.023 | [3] -0.054 | [4] -0.018 | [5] 0.092 | [10] 0 | entinostat -0.091 | vorinostat -0.005 | citarinostat -0.173 | [11] 0.196 | [7] -0.026

Reprinted at random: two entries already listed.
ZC3H11A (UniProt O75152)
inactive: bafetinib -0.128 | [9] 0.007 | nilotinib 0.089 | [1] 0.013 | dasatinib -0.242 | [2] -0.194 | [8] -0.166 | tipifarnib 0.141 | mubritinib -0.048 | [6] -0.09 | [10] -0.063 | vorinostat 0.2 | citarinostat 0.011 | silmitasertib 0.078 | [7] -0.051

XIRP2 isoform 8 (UniProt A4UGR9)
inactive: bafetinib -0.111 | [9] -0.063 | nilotinib -0.025 | [1] 0 | dasatinib 0.013 | [2] -0.03 | [8] -0.065 | tipifarnib 0.098 | mubritinib 0.02 | [4] -0.155 | [5] -0.021 | [6] -0.076 | entinostat -0.003 | vorinostat -0.119 | citarinostat 0.034 | silmitasertib 0.053 | [7] -0.106

Continuation.

ZNF239 (UniProt Q16600)
inactive: bafetinib -0.452 | [9] 0 | nilotinib -0.022 | [1] -0.012 | dasatinib -0.074 | [2] 0.275 | [8] 0.306 | [3] -0.102 | tipifarnib 0.178 | mubritinib -0.483 | [4] 0.015 | [5] -0.092 | [6] -0.253 | [10] -0.027 | entinostat -0.023 | vorinostat 0.275 | silmitasertib 0.29 | [11] 0.082

XK (UniProt P51811)
inactive: bafetinib -0.139 | [9] -0.167 | nilotinib -0.177 | [1] 0.005 | dasatinib 0.028 | [2] 0.028 | [8] 0.133 | tipifarnib 0.057 | mubritinib -0.042 | [4] -0.025 | [5] 0.077 | [6] 0.092 | [10] -0.013 | entinostat -0.113 | vorinostat -0.023 | citarinostat -0.057 | silmitasertib -0.005 | [7] 0.003

ZC3H13 (UniProt Q5T200)
inactive: bafetinib -0.396 | [9] -0.338 | nilotinib -0.216 | [1] 0.005 | dasatinib 0.032 | [2] 0.015 | [8] 0.146 | [3] -0.042 | tipifarnib 0.066 | mubritinib -0.293 | [5] -0.253 | [6] 0.247 | [10] -0.269 | vorinostat -0.311 | citarinostat -0.376 | silmitasertib 0.358 | [11] 0.154 | [7] 0

ZDHHC2 (UniProt Q9UIJ5)
inactive: bafetinib -0.375 | [9] 0.007 | nilotinib -0.063 | [1] -0.057 | [2] 0.021 | [3] 0.054 | tipifarnib -0.022 | mubritinib 0.093 | [4] -0.019 | [6] -0.095 | entinostat -0.038 | vorinostat 0.014 | citarinostat 0.101 | silmitasertib 0.137 | [7] -0.176
